# Assay results reported in paper PMC12797000.
# Protein sequences, listed by entry. Tags and fused reporters are not part of them.
# UniProt P23595: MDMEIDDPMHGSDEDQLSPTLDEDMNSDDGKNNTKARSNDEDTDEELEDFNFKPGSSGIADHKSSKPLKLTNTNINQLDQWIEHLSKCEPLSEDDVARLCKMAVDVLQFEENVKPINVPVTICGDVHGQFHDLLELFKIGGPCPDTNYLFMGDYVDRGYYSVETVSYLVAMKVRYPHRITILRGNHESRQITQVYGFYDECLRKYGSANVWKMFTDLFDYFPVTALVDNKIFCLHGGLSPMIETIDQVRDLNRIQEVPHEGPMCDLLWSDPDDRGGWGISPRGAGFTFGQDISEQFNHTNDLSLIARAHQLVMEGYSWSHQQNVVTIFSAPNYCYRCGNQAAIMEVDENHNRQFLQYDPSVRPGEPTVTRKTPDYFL
# Results are given in words; binding and its absence hold for the method and conditions named. Binding seen in cells or lysates may run through a third protein. Here binding means that the protein was enriched with, or labelled near, the bait; the list need not be complete. Sequences can lack the tags named with a protein.
# T1: Cdc55^reg tagged with protein A (Cdc55^reg-ProtA) (yeast (Saccharomyces cerevisiae, BY4741)) (UniProt Q00362)
# T1 sequence: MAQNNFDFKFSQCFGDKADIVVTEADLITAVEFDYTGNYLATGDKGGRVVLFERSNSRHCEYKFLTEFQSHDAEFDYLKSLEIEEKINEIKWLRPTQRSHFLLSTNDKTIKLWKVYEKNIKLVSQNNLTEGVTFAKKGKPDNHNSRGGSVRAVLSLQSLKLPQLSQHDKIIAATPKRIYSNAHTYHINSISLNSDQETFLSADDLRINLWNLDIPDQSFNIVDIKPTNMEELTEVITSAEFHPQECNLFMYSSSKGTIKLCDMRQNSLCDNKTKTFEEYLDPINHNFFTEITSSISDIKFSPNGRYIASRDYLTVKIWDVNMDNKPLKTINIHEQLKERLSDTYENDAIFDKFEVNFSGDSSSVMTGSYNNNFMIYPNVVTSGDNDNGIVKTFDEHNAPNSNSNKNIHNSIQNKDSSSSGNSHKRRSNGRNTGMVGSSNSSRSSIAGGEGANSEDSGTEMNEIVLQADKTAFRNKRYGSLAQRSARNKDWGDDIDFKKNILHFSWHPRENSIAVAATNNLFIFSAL
# T2: Psy2^reg tagged with protein A (Psy2^reg-ProtA) (yeast (Saccharomyces cerevisiae, BY4741)) (UniProt P40164)
# T2 sequence: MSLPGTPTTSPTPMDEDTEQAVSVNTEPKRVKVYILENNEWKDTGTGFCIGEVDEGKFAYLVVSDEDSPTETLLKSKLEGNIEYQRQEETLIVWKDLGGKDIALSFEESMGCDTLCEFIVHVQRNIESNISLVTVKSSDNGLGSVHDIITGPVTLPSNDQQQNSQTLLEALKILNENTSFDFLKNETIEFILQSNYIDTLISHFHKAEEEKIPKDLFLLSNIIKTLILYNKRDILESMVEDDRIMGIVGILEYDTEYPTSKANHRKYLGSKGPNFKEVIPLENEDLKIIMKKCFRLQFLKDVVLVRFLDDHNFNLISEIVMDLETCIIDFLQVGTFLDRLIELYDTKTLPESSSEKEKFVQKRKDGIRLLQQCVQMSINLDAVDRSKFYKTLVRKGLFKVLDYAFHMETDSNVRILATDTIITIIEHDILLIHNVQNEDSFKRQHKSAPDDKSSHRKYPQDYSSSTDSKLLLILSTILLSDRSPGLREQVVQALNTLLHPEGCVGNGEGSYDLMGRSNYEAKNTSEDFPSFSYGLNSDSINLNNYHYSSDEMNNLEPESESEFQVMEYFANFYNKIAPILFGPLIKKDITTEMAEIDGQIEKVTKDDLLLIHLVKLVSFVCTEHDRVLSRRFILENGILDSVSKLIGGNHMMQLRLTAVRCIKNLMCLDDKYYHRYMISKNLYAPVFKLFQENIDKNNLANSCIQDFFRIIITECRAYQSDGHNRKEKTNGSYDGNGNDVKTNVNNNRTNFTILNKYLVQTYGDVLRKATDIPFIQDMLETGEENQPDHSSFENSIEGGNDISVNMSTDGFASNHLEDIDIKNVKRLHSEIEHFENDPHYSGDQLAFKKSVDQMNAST
# B1: Pph3^cat, catalytic subunit of PP4 (enzyme, UniProt P32345 1-308)
# chain: MMDLDKIIASLRDGKHIPEETVFRLCLNSQELLMNEGNVTQVDTPVTICGDIHGQLHDLLTLFEKSGGVEKTRYIFLGDFVDRGFYSLESFLLLLCYKLRYPDRITLIRGNHETRQITKVYGFYDEVVRKYGNSNVWRYCCEVFDYLSLGAIINNSIFCVHGGLSPDMTTVDEIRTIDRKQEVPHEGAMCDLLWSDPEDVDTWSLSPRGAGFLFGKREVDQFLEKNNVELIARAHQLVMEGYKEMFDGGLVTVWSAPNYCYRCGNVAAVLKIDDDLNREYTIFEAVQAQNEVGNAIIPTKKSQMDYFL
# B2: Psy4^reg, regulatory subunit of PP4 (protein, UniProt P38193 1-441)
# chain: MSSTMLDDVDNNMMGIKSISLYELLSDVVKQGDKTRLVTAGPEQVLPDLIRHITETIPFDLFINLKNEMNDARNLVTRLNWLGKFLNDNFLQNHTFPFTILRICELCYDPFKYYKINELEKFVNALEKCCMVTSSWQVFDKTHGEKQEDDKEKDINFIKNQEDVSLMKIPWMTENNTRELAPFIREIDSIMSVNLGYDDEDEEEGFFDGDEDREMGNKSKRNVLLKDENFMVEEYYEDDCGINDDNSDNKGQNCQSDVTKNNSDDEDDDDNDDDYREDGADEDDEDDDHMGSTDDDEDDDEDRQAGESTKVQNFDKKNETPRKRKPTDLDNFEYDESPSFTNMDLTTPKKYKHTATGRFSIIESPSSSLLNAMDGSNEISSSQEEEKEDAHENHEGRSEGLLPGDELVSPSMSSSQEDKMVAIAGITYRENISSPLGKKSR
# Columns and labels:
# [1] = target: T1, Cdc55^reg tagged with protein A (Cdc55^reg-ProtA) (yeast (Saccharomyces cerevisiae, BY4741)); test: affinity purification with mass spectrometry; Cdc55^reg-ProtA from BY4741 yeast lysate on IgG beads, eluted by TEV protease; product analysed by mass spectrometry (LFQ intensity); control: strain without ProtA
# [2] = target: T2, Psy2^reg tagged with protein A (Psy2^reg-ProtA) (yeast (Saccharomyces cerevisiae, BY4741)); test: affinity purification with mass spectrometry; Psy2^reg-ProtA from BY4741 wild-type yeast lysate on IgG beads, eluted by TEV protease; product analysed by mass spectrometry (LFQ intensity)
# [3] = target: T2, Psy2^reg tagged with protein A (Psy2^reg-ProtA) (yeast (Saccharomyces cerevisiae, BY4741)); test: affinity purification with mass spectrometry; Psy2^reg-ProtA from BY4741 pph3Δ yeast lysate (no catalytic subunit Pph3) on IgG beads, eluted by TEV protease; product analysed by mass spectrometry
Molecule,binding [1],binding [2],binding [3]
"Pph22^cat, catalytic subunit of PP2A (from UniProt P23595 1-377) (enzyme)",binds,,
B1,,binds,
B2,,binds,binds weakly
